## Results from one PubChem assay

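Luminescence from an EWS-FLI1 target-promoter (NR0B1) reporter, set against a CMV-promoter reporter, two days after silencing single genes in TC32 Ewing sarcoma cells.
Each siRNA was applied at 20 nM.
A z-score of the log NR0B1-over-CMV signal, less the median of siRNAs with the same seed; more negative means a stronger specific loss of the NR0B1 reporter.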

The strongest results of the screen are mostly left out here.
Sequences are the guide (antisense) strand, without overhang.

siRNA,gene,seed-corrected z-score
UACCUUCAAAUCACCCUCG,DKKL1,-0.08145
UCAGUUCCUUCCCAGGGUG,MLLT4,0.6744
AUAGCGCACUUUAUCUGCC,HMGB3,-0.1692
AAUCCGUUGACAGACAUGC,SV2C,-0.7623
UCUUGUUCAGGGAUCAAUG,BOD1L1,-0.474
UUGGUUAACGGCUGGAACU,CXorf67,-0.9847
UUUACAUCACAUGAUAACC,GPHN,-0.05466
UUCUUGCCGAUAUAUUUCC,TRIM64C,-0.9489
AACUUAAAAAGUCUACACC,RPL15,0.2585
UCGAUGGUCAUGGUAAACG,APOB,-0.8961
UAGCCGUUGAUGAUCCUCC,TMCO4,1.562
UGGUGUUAUACAGUGUUCC,ATG7,-1.518
UAGUUGAUAGGAGUGUCCC,ST18,-0.6884
AUGGUGUUCAGGUUGUAGC,TOB2,-0.1704
UGGUGUGGAACUACCAGGG,CRHBP,0.02814
AUGUUUCUUAAUACCGUCA,URM1,-1.378
UAAAUUGCCGGUAAAGCUG,CEP68,1.598
UAUCUUUCCAUUUCAAGUG,ICAM3,0.7926
UGUAGAAUUGAGGAGCCCG,FAM86C1,0.00212
UGAAAGUUUCCAAAUAUUC,IQCK,-0.9162
UCCCUGAGUAGAAUGAGCC,BAHCC1,-0.9938
UCAGGGUCAGUCAUGGUGC,SEC14L2,-0.4431
UCGGUUUACUGGUCUCUCC,NSFL1C,-0.949
AGACGGAAUAGUCAAAGUC,NLGN3,0.7277
UAUUGGGUACUGUCCAUGC,LLPH,0.3823
UGGUGUAUAAUUUAUUCCC,SIX2,0.5044
UUUGGUCUCUUGAUGGAUG,HTR3D,-0.1759
AUAGCUGUAUGUAAAAUGU,FABP5P9,-0.6291
UUCACCAACGCAUAAAUGG,NSMCE1,-0.8345
UCAGUUACAUCUCCCUCCU,FAM9C,0.3703
UGCGGGAUAGUUGUACAGC,FIGNL2,0.8911
UGUGCUCUCAAAGCGGAUC,DHX34,-1.818
AUUUUGUCUAGCUUUUCUC,IFIT1,0.7655
UGUUUUAGCAGUAGAUCCC,FAM227A,-0.4707
UCACCUUUUGAAUCUGGGC,SAPCD1,-0.2094
UUUCGGAACUCUUCCAUAG,KDM4A,-0.9203
UCUUUUCUCCAUAAUAGGC,HES1,-0.3176
UCUAAUUCAACACUCCGGC,PLCL2,0.3064
AUCCGAACAAAUCCGGUCC,UBN1,-0.4766
UUAAGGUCCUGUAUUGUUC,PLAC4,-0.3523
AUUGUUUGGAGGGCUGUUG,UPK1B,0.5742
UUCAUCUCUAUGGAUUUCG,ADCK3,-0.5504
UAAGUCCUCAUUGUUAACC,CACNA2D2,-0.7786
UCCAUUUACUGCCUCUAGC,HSPA12B,-0.3711

Some entries from above, unchanged:

| siRNA | gene | seed-corrected z-score |
|---|---|---|
| `UGUAGAAUUGAGGAGCCCG` | FAM86C1 | 0.00212 |
| `AUUUUGUCUAGCUUUUCUC` | IFIT1 | 0.7655 |
| `UCUUGUUCAGGGAUCAAUG` | BOD1L1 | -0.474 |
| `UAGUUGAUAGGAGUGUCCC` | ST18 | -0.6884 |
| `UCCAUUUACUGCCUCUAGC` | HSPA12B | -0.3711 |

Data taken from PubChem BioAssay AID1159506, deposited by NCATS (2015).